# Some of the results follow.
# Tested on: T1, CTL2-GFP (C. trachomatis L2/434/Bu, GFP-expressing)
# T1 construct: L2/434/Bu, GFP-expressing
# Set-up: species or system HeLa; Intracellular C. trachomatis growth in HeLa cells, bulk GFP fluorescence relative to DMSO
# Conditions: bulk GFP, single well; 28.5 h, 10 µM; inhibitor
row,SMILES,% of control remaining [%]
1,C=CCc1c(O)nc(SCC(=O)N2CCOCC2)[nH]c1=O [CBK073301],120.83
2,Nc1nc2c(cnn2[C@H]2C[C@@H](O)[C@@H](CO)O2)c(=O)[nH]1 [CBK201223],131.366
3,Cc1cc(C(F)(F)F)nn1CC(=O)Nc1sc2c(c1C#N)CCC(C)C2 (centres unmarked) [CBK304619],130.614
4,c1ccc(Oc2ccc(Nc3cccc(-c4ccc(N5CCOCC5)cc4)n3)cc2)cc1 [CBK036986],160.635
5,Cc1csc(Sc2nccnc2NC(C)C)n1 [CBK115203],166.255
6,Cn1c(COc2cncc(Cl)n2)cc2ccccc21 [CBK176002],104.403
7,O=c1[nH]c2ncc(-c3ccccc3)nc2n1CCCN1CCOCC1 [CBK064805],101.026
8,c1ccc(Nc2nccc(C3CCCN(Cc4ccc5[nH]ccc5c4)C3)n2)nc1 (centres unmarked) [CBK286093],126.053
9,O=C1NC2=C(C(=O)N(CCN3CCCC3)C2)C(c2ccccc2)N1 (centres unmarked) [CBK283493],118.252
10,CN1CCC(=NNC(=O)c2ccc(N(Cc3ccccc3)S(C)(=O)=O)cc2)CC1 [CBK262742],120.727
11,Cn1c(SCC(=O)Nc2ccc(Oc3ccc(Cl)cc3)cc2)nnc1-c1ccncc1 [CBK269654],120.087
12,COc1ccccc1C(=O)Nc1nc2ccc(NC(C)=O)cc2s1 [CBK287303],148.776
13,O=C(Nc1[nH]nc(O)c1Cc1c(Cl)cccc1Cl)C1CCCCC1 [CBK084558],126.262
14,c1cnc(NCc2cc3n(n2)CCN(CC2CCCCO2)C3)cn1 (centres unmarked) [CBK306891],143.948
15,OC1(c2cccnc2)C2CCCC1CN(Cc1ccc(F)cc1)C2 (centres unmarked) [CBK285204],83.6568
16,COC(=O)c1nc(Cl)c(Cl)nc1NS(=O)(=O)c1cccc(Cl)c1C [CBK004709],117.527
17,NC(=O)C1(Cc2cccc(-c3cccs3)c2)CCN(C(=O)Cc2ccccc2)CC1 [CBK286272],149.462
18,CC(=O)NCCNC(=O)c1ccc(-c2ccccc2)nc1NCCc1ccccn1 [CBK076595],125.165
19,Cc1ccc(NC(=O)Cn2cnc3c(=O)n(C)c(=O)n(C)c32)c(O)c1 [CBK267002],142.334
20,CN(CC(=O)O)C(=O)c1ccc(Oc2cccc(Br)c2)nc1 [CBK306485],106.566
21,Cc1cccc(CN2CCC(NC(=O)c3cccc4nn[nH]c34)CC2)c1 [CBK305411],110.813
22,Cc1ccc2c(c1)CCCN2C(=O)c1cccnc1NCc1ccc2c(c1)OCO2 [CBK160113],88.7399
23,Cc1cc(COC(=O)N2CCCC(C(F)(F)F)C2)cc(C)n1 (centres unmarked) [CBK200150],130.683
24,Cc1cc2nc(-c3ccccn3)[nH]c2cc1C [CBK000122],0
25,Cc1noc(C)c1C(=O)N1CCN(c2ccccc2)CC1 [CBK200165],99.9761

# 3 compounds from above, arranged by formula weight, descending.
row,SMILES,% of control remaining [%]
4,c1ccc(Oc2ccc(Nc3cccc(-c4ccc(N5CCOCC5)cc4)n3)cc2)cc1 [CBK036986],160.635
10,CN1CCC(=NNC(=O)c2ccc(N(Cc3ccccc3)S(C)(=O)=O)cc2)CC1 [CBK262742],120.727
16,COC(=O)c1nc(Cl)c(Cl)nc1NS(=O)(=O)c1cccc(Cl)c1C [CBK004709],117.527

# (next part)

row,SMILES,% of control remaining [%]
1,O=C1Nc2c(cnn2-c2ccccc2Cl)C2=NCCCN12 [CBK283331],141.195
2,COc1ccc(O)c(CN2CCC(N3CCCCC3)CC2)c1 [CBK261849],110.162
3,CC(C)n1nccc1C(=O)NCC(c1ccc(F)cc1)N1CCCC1 (centres unmarked) [CBK283025],122.884
4,NC(=O)c1cc(-c2ccccc2)sc1NC(=O)C(Cc1ccccc1)N1C(=O)c2ccccc2C1=O (centres unmarked) [CBK265843],155.826
5,O=C(c1ccccc1F)N1C[C@H](c2ccsc2)[C@H]2CN(Cc3ccccc3)CC[C@H]21 [CBK285655],81.2551
6,CC(=O)Nc1ccc(CNC(=O)c2cccnc2O)cc1 [CBK304559],92.7322
7,CCc1ccc(C2=CC(c3cccc(C)c3)n3nnnc3N2)cc1 (centres unmarked) [CBK268095],100.42
8,CN(C)CCCNC(=O)c1cc2c(n(-c3ccc(Cl)c(Cl)c3)c1=O)CC(C)(C)CC2=O [CBK293952],159.981
9,c1ncc(OC2CCN(CCN3CCOCC3)C2)nc1OCCN1CCOCC1 (centres unmarked) [CBK084492],102.149
10,COCCn1nnnc1C(c1cc2cc(C)cc(C)c2[nH]c1=O)N1CCOCC1 (centres unmarked) [CBK068815],114.328
11,COc1ccc(NC2=NN(c3ccccc3)C(=O)C2)cc1 [CBK288085],106.135
12,Cc1noc(CN2CCN(c3ccc4nnc(C(F)(F)F)n4n3)CC2)n1 [CBK305566],160.94
13,CCN(CC(O)COc1ccc2ccccc2c1)S(=O)(=O)O (centres unmarked) [CBK261113K],119.718
14,O=C(Cn1cccn1)Nc1ccc2c(c1)CN(Cc1ccccc1)C2 [CBK281829],150.447
15,O=C(CC1NCCNC1=O)Nc1ccc2c(c1)OCCO2 (centres unmarked) [CBK266837],131.466
16,COc1ccc(CCNC(=O)C(=O)Nc2ccc(C)c(C)c2)cc1 [CBK263222],105.364
17,CC(c1ccco1)N(C)Cc1c[nH]nc1-c1ccc(O)cc1 (centres unmarked) [CBK283303],119.019
18,O=C(CCCN1C(=O)/C(=C/c2ccc3c(c2)OCO3)SC1=S)Nc1ccc([N+](=O)[O-])cc1 [CBK264623],97.0491
19,CC1=NN(c2ccc([N+](=O)[O-])cc2)C(=O)/C1=C/NCc1ccc(S(N)(=O)=O)cc1 [CBK262670],106.991
20,Nc1ncc(-c2cccc(Br)c2)nc1NCCCO [CBK063603],141.248
21,COc1cc(/C=N/c2ccc(/N=C/c3cc(Br)c(O)c(OC)c3)cc2)cc(Br)c1O [CBK261843],100
22,Cc1cccc(-c2csc3c(=O)[nH]c(N4CCC(C(=O)N5CCOCC5)CC4)nc23)c1 [CBK215644],177.158
23,Cc1ccc(CC(C#N)Sc2nc(CN3CCOCC3)nc3ccccc23)cc1 (centres unmarked) [CBK298321],120.02
24,Cn1cc(CC2CCN(Cc3ccncc3)C2)cn1 (centres unmarked) [CBK304796],114.967
25,Cc1cc2c(o1)c1cnn(CC(=O)N(C(C)C)C(C)C)c(=O)c1n2C [CBK282392],133.925

# Structures listed so far that have two or more sulfur atoms, in the order listed:
row,SMILES,% of control remaining [%]
5,Cc1csc(Sc2nccnc2NC(C)C)n1 [CBK115203],166.255
18,O=C(CCCN1C(=O)/C(=C/c2ccc3c(c2)OCO3)SC1=S)Nc1ccc([N+](=O)[O-])cc1 [CBK264623],97.0491
